From patent US7098307B2, “Neo-tryptophan” (Mayo Foundation for Medical Education and Research, priority 1998, dated 2006)
At least one compound was matched to its structure with a doubt left. Some entries share one result that the patent states for a list of compounds. Square brackets hold non-standard residues; d marks the D form. Ends that are not written are not given here. Peptide text beside a SMILES is read from it. Ala(indol-4-yl) = N[C@@H](Cc1cccc2[nH]ccc12)C(=O)O; Tle = CC(C)(C)[C@H](N)C(=O)O; Dab = NCC[C@H](N)C(=O)O

Protein sequences, listed by entry. Tags and fused reporters are not part of them.
UniProt P30989, whole entry: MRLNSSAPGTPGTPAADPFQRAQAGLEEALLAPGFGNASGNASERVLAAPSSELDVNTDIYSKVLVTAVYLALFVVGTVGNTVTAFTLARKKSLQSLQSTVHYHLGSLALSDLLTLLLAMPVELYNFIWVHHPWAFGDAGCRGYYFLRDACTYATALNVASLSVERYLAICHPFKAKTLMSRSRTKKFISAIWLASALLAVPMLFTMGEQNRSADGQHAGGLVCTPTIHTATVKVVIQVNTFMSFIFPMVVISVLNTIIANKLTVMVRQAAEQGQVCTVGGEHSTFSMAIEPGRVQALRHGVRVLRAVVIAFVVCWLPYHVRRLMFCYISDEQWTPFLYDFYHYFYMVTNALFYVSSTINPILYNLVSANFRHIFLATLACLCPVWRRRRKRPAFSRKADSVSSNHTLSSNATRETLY
UniProt P20789, whole entry: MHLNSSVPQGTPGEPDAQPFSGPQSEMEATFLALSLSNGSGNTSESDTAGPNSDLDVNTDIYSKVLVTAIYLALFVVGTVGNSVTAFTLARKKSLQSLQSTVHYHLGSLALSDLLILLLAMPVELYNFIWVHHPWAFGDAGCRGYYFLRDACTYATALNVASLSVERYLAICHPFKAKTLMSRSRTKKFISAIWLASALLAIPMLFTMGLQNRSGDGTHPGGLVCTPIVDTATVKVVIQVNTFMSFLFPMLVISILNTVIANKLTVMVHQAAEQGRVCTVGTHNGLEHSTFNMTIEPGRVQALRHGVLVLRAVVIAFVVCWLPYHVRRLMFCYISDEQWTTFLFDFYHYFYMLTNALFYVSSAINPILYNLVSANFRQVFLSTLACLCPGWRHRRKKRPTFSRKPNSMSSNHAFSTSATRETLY

Assays:
[1] = Catalepsy bar test in rats; type: in vivo, rat
Method: The following experiments were performed to assess the ability of NT69L to cause and influence catalepsy. Male Sprague-Dawley rats (150–250 g) or CD-1 mice (24–26 g) were housed in a temperature-controlled room in groups of five with free access to food and water. The animals were kept on a 12 hour light/dark cycle, and all tests were performed during the light cycle. […] Thirty minutes after injection, the animals were tested for catalepsy. For rats, the test involved simply placing the animal's fore paws on a suspended metal bar 10 mm in diameter, 11 cm above the counter. The time elapsed until the animal's fore paws touch the counter was recorded. […] The cut-off time was 20 seconds, and each animal was tested three times for each time point.

[2] = Body temperature (hypothermia) in rats; details: clozapine 20 mg/kg ip and/or haloperidol 1 mg/kg ip
human NTR1 = biological target: T1, human NTR1 (Homo sapiens, UniProt P30989); assay: Competition binding with [3H]NT, membranes of CHO-K1 cells transfected with human NTR1; details: for Kd: CHO-K1 membranes, geometric mean ± SEM, read-out: Kd hNTR
T1 construct: expressed in transfected cells; host or cells: CHO-K1
Method: (§1) CHO-K1 cells were stably transfected with nucleic acid encoding either the human NTR1 or the rat NTR1, and cultured in 150 mm petri plates with 35 mL of Dulbecco-modified Eagle's medium containing 100 μM minimal essential medium nonessential amino acids (GIBCO) supplemented with 5% (v/v) FetalClone II bovine serum product (Hyclone Labs, Logan, Utah). CHO cells (subculture 9–19) were harvested at confluency. Briefly, the medium from each plate was removed by aspiration, and the cells washed with 6 mL of 50 mM Tris-HCl (pH 7.4) and resuspended in 5–10 mL of Tris-HCl by scraping the cells with a rubber spatula. The resuspended cells were placed into a centrifuge tube and collected by centrifugation at 300× g for five minutes at 4° C. in a GPR centrifuge (Beckman Instruments, Fullerton, Calif.). The cellular pellet (in 50 mM Tris-HCl, 1 mM EDTA, pH 7.4) was stored at […] until radioligand binding was performed.
(§2) The supernatant was decanted and discarded, and the cellular pellet was resuspended in 2 mL of Tris-HCl, 1 mM EDTA (pH 7.4) followed by homogenization with a Brinkmann Polytron at setting 6 for ten seconds. Centrifugation was repeated as above and the supernatant was decanted and discarded. The resulting final cellular pellet was resuspended in 50 mM Tris-HCl, lmM EDTA, 0.1% bovine serum albumin, and 0.2 mM bacitracin.
Incubation was at 20° C. for 30 minutes. Each reaction was terminated by addition of cold 0.9% NaCl (5×1.5 mL) followed by rapid filtration through a GF/B filter strip that had been pretreated with 0.2% polyethylenimine.

rat NTR1 = biological target: T2, rat NTR1 (Rattus norvegicus, UniProt P20789); assay: Competition binding with [3H]NT, membranes of CHO-K1 cells transfected with rat NTR1; details: geometric mean ± SEM, read-out: Kd rNTR
T2 construct: expressed in transfected cells; host or cells: CHO-K1
Method: as §1, §2
Incubation was at 20° C. for 30 minutes. […]

Compound	Kd (human NTR1) [nM]	Kd (rat NTR1) [nM]	other results
CN1CCN(C2=Nc3cc(Cl)ccc3Nc3ccccc32)CC1 [Clozapine]	–	–	haloperidol-induced catalepsy, test compound given after ([1]; 20 mg/kg ip 30 minutes after haloperidol 1 mg/kg ip): cataleptic effects similar to those observed in animals receiving haloperidol alone; haloperidol-induced catalepsy, pretreatment with test compound ([1]; 20 mg/kg ip before haloperidol, not statistically significant): modulated the cataleptic effects of haloperidol; change in body temperature [2]: −1 °C to −2 °C
CC(C)C[C@H](NC(=O)[C@@H](NC(=O)[C@H](Cc1cccc2[nH]ccc12)NC(=O)[C@@H]1CCCN1C(=O)[C@@H](N)CCN)C(C)(C)C)C(=O)O [NT74] (H-[Dab]P[Ala(indol-4-yl)][Tle]L-OH; N-terminus and C-terminus assumed)	360 ± 10	160 ± 40	–
CC[C@H](C)[C@H](NC(=O)[C@H](Cc1cccc2[nH]ccc12)NC(=O)[C@@H]1CCCN1C(=O)[C@@H](N)CCN)C(=O)N[C@@H](CC(C)C)C(=O)O [NT75] (H-[Dab]P[Ala(indol-4-yl)]IL-OH; N-terminus and C-terminus assumed)	34	10	–
RRPWIL [NTW, reference compound]	–	–	reduction in binding affinity compared to NT64L (human NTR1; NT receptor binding): more than 30 fold
